# According to the supplement of paper PMC9135407:
# “And” between values parts separate entries of the source, which are not always exact repeats. Equal values may be shown once. Where a name gives a salt, the structure may show the parent alone. ± gives the standard deviation of the averaged measurements. The list shows a part of the results. Baselines shift from plate to plate; read single values as rough.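 Culture-activated primary human stellate myofibroblasts, where regained lipid droplets signal inactivation. Value: share of Hoechst-counted cells above a per-plate Bodipy cutoff, in duplicate wells, with DMSO negative and nortriptyline positive controls on each plate. Hits: a control-normalized score above the plate's top-tenth-percentile nortriptyline wells, or one of a plate's three best wells. Final well concentrations are not given.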
# Test system: primary human hepatic stellate cells (donor 1)
# Assay: percent Bodipy-positive cells; higher = more lipid droplet accumulation
# Conditions: 48 h
# [1] = library stock concentration: 80 uM
# [2] = library stock concentration: 400 uM
# [3] = library stock concentration: 2 mM
# [4] = library stock concentration: 3.33 mM
# [5] = library stock concentration: 10 mM
# [6] = library stock concentration: 1 mM
structure (smiles),measurement,setting,value
CCn1c(-c2nonc2N)nc2c(C#CC(C)(C)O)ncc(OC[C@H]3CCCNC3)c21,percent Bodipy-positive cells,[1],10.2 ± 3.6%
same,percent Bodipy-positive cells,[2],18.6% and 16.5%
same,percent Bodipy-positive cells,[3],12.5% and 21.5%
same,percent Bodipy-positive cells,[4],36.5 ± 4.6%
O=C1c2ccccc2C(=O)C1c1ccc(Br)cc1 [Bromindione],percent Bodipy-positive cells,library stock concentration: 6.6 mM,14.2 ± 4.5%
NC(=O)CC[C@H](N)C(=O)O,percent Bodipy-positive cells,[5],41.1 ± 0.86%
NC(=O)CC[C@H](N)C(=O)O [L-Glutamine],percent Bodipy-positive cells,[5],45.7 ± 5.2%
CC(C)=CCC/C(C)=C/CC/C(C)=C/CC[C@]1(C)CCc2cc(O)c(C)c(C)c2O1 [.gamma.-Tocotrienol],percent Bodipy-positive cells,[6],10.2 ± 1.5%
O=C1C(Cl)=C(NCCN2CCOCC2)C(=O)c2ncccc21,percent Bodipy-positive cells,[5],68.6 ± 0.77%
COc1cc(C[C@H]2COC(=O)[C@@H]2Cc2ccc(O)c(OC)c2)ccc1O [Matairesinol],percent Bodipy-positive cells,[6],12.9 ± 6.8%
CCCCC/C=C\C/C=C\C/C=C\C/C=C\CCCC(=O)O[C@@H](CO)COCCCCCCCCCCCCCCCC [1-Hexadecyl-2-arachidonoyl-glycerol],percent Bodipy-positive cells,[6],4.84 ± 2.8%
NC(=O)Nc1cc(-c2cccc(F)c2)sc1C(=O)N[C@H]1CCCNC1,percent Bodipy-positive cells,[4],91.5 ± 2%
O=c1oc2cc(O)ccc2s1 [Tioxolone],percent Bodipy-positive cells,[4],12.3 ± 5%
COc1cc2ncnc(Nc3cccc(Cl)c3)c2cc1OC [AG-1478 (Tyrphostin AG-1478)],percent Bodipy-positive cells,[4],8.89 ± 1.1%
COc1cc2ncnc(Nc3cccc(Cl)c3)c2cc1OC,percent Bodipy-positive cells,[1],6.737 ± 0.044%
same,percent Bodipy-positive cells,[2],7.04 ± 1.9%
same,percent Bodipy-positive cells,[3],8.32 ± 2.3%
same,percent Bodipy-positive cells,[4],10.5 ± 2.9%
same,percent Bodipy-positive cells,[5],66.7 ± 10%
same,percent Bodipy-positive cells,library stock concentration: 14.2 mM,52.8 ± 3.2%
CCCCc1ccc2[nH]c(NC(=O)OC)nc2c1 [Parbendazole],percent Bodipy-positive cells,,20.7 ± 3.4%
"CCCCCC=CCC=CCCCCCCCCCC(=O)O [11(Z),14(Z)-Eicosadienoic Acid]",percent Bodipy-positive cells,[6],9 ± 2.5%
Nc1ccccc1NC(=O)c1ccc(CNc2nccc(-c3cccnc3)n2)cc1 [Mocetinostat (MGCD0103)],percent Bodipy-positive cells,[4],69.5 ± 3.4%
CC1/C=C/C=C/C=C/C=C/C=C/C=C/C=C/C(OC2O[C@H](C)[C@@H](O)[C@H](N)[C@@H]2O)CC(O)C(C(=O)O)C(O)CC(=O)CC(O)CC(O)CC(O)CC(=O)CCCC(=O)CC(=O)OC1C(C)CC(C)C(O)CC(=O)c1ccc(N)cc1 (some centres undefined),percent Bodipy-positive cells,[5],42.6 ± 14%
CCC1(O)CC2CN(CCc3c([nH]c4ccccc34)[C@@](C(=O)OC)(c3cc4c(cc3OC)N(C)C3[C@]45CCN4CC=C[C@@](CC)([C@@H](OC(C)=O)[C@]3(O)C(=O)OC)[C@H]45)C2)C1.O=S(=O)(O)O (some centres undefined) [Vinblastine sulfate salt],percent Bodipy-positive cells,[5],99.81 ± 0.27%
CCOC(=O)c1cnc2c(cnn2CC)c1NN=C(C)C [Etazolate],percent Bodipy-positive cells,library stock concentration: 6.9 mM,7.96 ± 1.4%
C[C@@H]1C[C@H]2[C@@H]3CCC4=CC(=O)C=C[C@]4(C)[C@@]3(Cl)[C@@H](O)C[C@]2(C)[C@@]1(OC(=O)c1ccco1)C(=O)CCl [Mometasone furoate],percent Bodipy-positive cells,,37.23 ± 0.32%
same,percent Bodipy-positive cells,[4],18.7 ± 3.2%
same,percent Bodipy-positive cells,[5],70.8 ± 0.8%
CCOC(=O)[C@H](CCc1ccccc1)N[C@@H](C)C(=O)N1C(=O)N(C)C[C@H]1C(=O)O [Imidapril HCl],percent Bodipy-positive cells,[4],9.62 ± 3.9%
same,percent Bodipy-positive cells,[5],23.2 ± 9.2%
c1coc(CNc2ncnc3[nH]cnc23)c1 [Kinetin],percent Bodipy-positive cells,[4],9.601 ± 0.059%
same,percent Bodipy-positive cells,[5],21.3% and 19.9%
CN1CCN(CCCN2c3ccccc3Sc3ccc(C(F)(F)F)cc32)CC1.Cl.Cl [Trifluoperazine],percent Bodipy-positive cells,library stock concentration: 10.4 mM,90.2 ± 2.3%
C[C@]12CCC3=C4CCC(=O)C=C4CC[C@H]3[C@@H]1CC[C@@]2(O)CC#N [Dienogest],percent Bodipy-positive cells,[4],12.9 ± 6.4%
same,percent Bodipy-positive cells,[5],18.4 ± 3.9%
S=c1[nH]c(-c2ccccc2)cn1-c1ccccc1,percent Bodipy-positive cells,[5],35.4 ± 5.6%
CCOc1ccc2nc(S(N)(=O)=O)sc2c1 [Ethoxzolamide],percent Bodipy-positive cells,library stock concentration: 7.7 mM,11.5 ± 11%
Nc1ncnc2c1ncn2C1OC(COP(=O)(O)O)C(O)C1O (centres undefined) [Adenosine 5'-monophosphate monohydrate],percent Bodipy-positive cells,,34.8 ± 1.1%
CCN(CC)CCOc1ccc2c(c1)C(=O)c1cc(OCCN(CC)CC)ccc1-2 [Tilorone],percent Bodipy-positive cells,[5],91.81 ± 0.37%
COc1cc2ncnc(-n3nc(-c4ccccn4)nc3N)c2cc1OC,percent Bodipy-positive cells,[1],11.2 ± 5.4%
same,percent Bodipy-positive cells,[2],20.7 ± 6.4%
same,percent Bodipy-positive cells,[3],18.5 ± 0.75%
same,percent Bodipy-positive cells,[5],14.5 ± 0.84%
COc1cc(/C=C/c2ccc(Cl)cc2)cc(OC)c1,percent Bodipy-positive cells,[6],11.1 ± 2.5%
CCCCCCCC/C=C/CCCCCCCC(=O)O [Elaidic Acid],percent Bodipy-positive cells,[6],7.71 ± 1.9%
O=C(O)c1cc(/N=N/c2ccc(S(=O)(=O)Nc3ccccn3)cc2)ccc1O [Sulfasalazine],percent Bodipy-positive cells,,23.8 ± 8.7%
same,percent Bodipy-positive cells,[4],14.5 ± 14%
same,percent Bodipy-positive cells,library stock concentration: 5 mM,7.25% and 16.2%
same,percent Bodipy-positive cells,[5],11.4% and 17.9%
O=C(O)c1cc(/N=N/c2ccc(S(=O)(=O)Nc3ccccn3)cc2)ccc1O,percent Bodipy-positive cells,[5],3.67 ± 1.3%
C1[C@@H](N(C)[C@@H]2C1)C[C@@H](OC(c3ccccc3)c4ccccc4)C2.CS(O)(=O)=O (some centres undefined) [Benztropine mesylate],percent Bodipy-positive cells,[5],91.2 ± 4.3%
C=C1c2cccc(O)c2C(O)=C2C(=O)[C@]3(O)C(O)=C(C(N)=O)C(=O)[C@@H](N(C)C)[C@@H]3[C@@H](O)[C@H]12 [Methacycline HCl],percent Bodipy-positive cells,[4],6.655 ± 0.017%
same,percent Bodipy-positive cells,[5],9.617 ± 0.066%

# A second format for some results above.
structure (smiles) | measurement | setting | value
CCOC(=O)c1cnc2c(cnn2CC)c1NN=C(C)C [Etazolate] | percent Bodipy-positive cells | library stock concentration: 6.9 mM | 7.96 ± 1.4%
C[C@@H]1C[C@H]2[C@@H]3CCC4=CC(=O)C=C[C@]4(C)[C@@]3(Cl)[C@@H](O)C[C@]2(C)[C@@]1(OC(=O)c1ccco1)C(=O)CCl [Mometasone furoate] | percent Bodipy-positive cells |  | 37.23 ± 0.32%
same | percent Bodipy-positive cells | [4] | 18.7 ± 3.2%
same | percent Bodipy-positive cells | [5] | 70.8 ± 0.8%
CCOC(=O)[C@H](CCc1ccccc1)N[C@@H](C)C(=O)N1C(=O)N(C)C[C@H]1C(=O)O [Imidapril HCl] | percent Bodipy-positive cells | [4] | 9.62 ± 3.9%
same | percent Bodipy-positive cells | [5] | 23.2 ± 9.2%
c1coc(CNc2ncnc3[nH]cnc23)c1 [Kinetin] | percent Bodipy-positive cells | [4] | 9.601 ± 0.059%
same | percent Bodipy-positive cells | [5] | 21.3% and 19.9%
CN1CCN(CCCN2c3ccccc3Sc3ccc(C(F)(F)F)cc32)CC1.Cl.Cl [Trifluoperazine] | percent Bodipy-positive cells | library stock concentration: 10.4 mM | 90.2 ± 2.3%
C[C@]12CCC3=C4CCC(=O)C=C4CC[C@H]3[C@@H]1CC[C@@]2(O)CC#N [Dienogest] | percent Bodipy-positive cells | [4] | 12.9 ± 6.4%
same | percent Bodipy-positive cells | [5] | 18.4 ± 3.9%
S=c1[nH]c(-c2ccccc2)cn1-c1ccccc1 | percent Bodipy-positive cells | [5] | 35.4 ± 5.6%
CCOc1ccc2nc(S(N)(=O)=O)sc2c1 [Ethoxzolamide] | percent Bodipy-positive cells | library stock concentration: 7.7 mM | 11.5 ± 11%
Nc1ncnc2c1ncn2C1OC(COP(=O)(O)O)C(O)C1O (centres undefined) [Adenosine 5'-monophosphate monohydrate] | percent Bodipy-positive cells |  | 34.8 ± 1.1%
